No constants are given. Whether binding was seen depends on the method and setting. In cells and extracts the contact can be indirect. Some results given as binding are weak or reduced against the parent protein; the word gives no strength.

Sequences of proteins named here, by UniProt entry; tags and fusion partners are left off. A change or cut given only in a name is not applied to a line headed by its entry. A line that says so, or that is headed by a name, gives the form on record, which may keep a tag or linker. Residues count along the entry.
UniProt P20963: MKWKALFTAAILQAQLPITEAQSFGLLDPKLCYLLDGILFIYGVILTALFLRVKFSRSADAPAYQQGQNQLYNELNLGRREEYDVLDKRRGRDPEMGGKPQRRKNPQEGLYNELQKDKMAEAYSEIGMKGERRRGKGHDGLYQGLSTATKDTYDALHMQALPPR
CCR7-YFP2 (P32248, residues 25-378): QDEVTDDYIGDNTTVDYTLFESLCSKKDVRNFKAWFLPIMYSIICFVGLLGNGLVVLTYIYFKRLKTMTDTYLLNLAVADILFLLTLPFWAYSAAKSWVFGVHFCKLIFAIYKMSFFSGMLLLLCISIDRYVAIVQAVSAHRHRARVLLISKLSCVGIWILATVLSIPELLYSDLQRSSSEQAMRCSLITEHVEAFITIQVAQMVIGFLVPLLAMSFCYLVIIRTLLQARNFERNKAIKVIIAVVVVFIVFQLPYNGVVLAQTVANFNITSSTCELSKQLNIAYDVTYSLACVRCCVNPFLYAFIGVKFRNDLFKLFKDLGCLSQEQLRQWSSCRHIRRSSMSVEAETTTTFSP
CCR7-A315G fused to YFP2 (P32248, form named): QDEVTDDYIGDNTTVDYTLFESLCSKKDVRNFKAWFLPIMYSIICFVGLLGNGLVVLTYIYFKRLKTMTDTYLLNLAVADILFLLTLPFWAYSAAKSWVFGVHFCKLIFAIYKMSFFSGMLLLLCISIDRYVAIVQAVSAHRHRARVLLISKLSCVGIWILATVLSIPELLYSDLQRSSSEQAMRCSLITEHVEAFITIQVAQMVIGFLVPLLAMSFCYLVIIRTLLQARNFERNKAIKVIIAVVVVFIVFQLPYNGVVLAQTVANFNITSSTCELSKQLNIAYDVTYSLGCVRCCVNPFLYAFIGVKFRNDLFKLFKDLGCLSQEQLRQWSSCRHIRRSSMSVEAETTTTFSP
CCR7-Y155F-YFP2 (P32248, form named): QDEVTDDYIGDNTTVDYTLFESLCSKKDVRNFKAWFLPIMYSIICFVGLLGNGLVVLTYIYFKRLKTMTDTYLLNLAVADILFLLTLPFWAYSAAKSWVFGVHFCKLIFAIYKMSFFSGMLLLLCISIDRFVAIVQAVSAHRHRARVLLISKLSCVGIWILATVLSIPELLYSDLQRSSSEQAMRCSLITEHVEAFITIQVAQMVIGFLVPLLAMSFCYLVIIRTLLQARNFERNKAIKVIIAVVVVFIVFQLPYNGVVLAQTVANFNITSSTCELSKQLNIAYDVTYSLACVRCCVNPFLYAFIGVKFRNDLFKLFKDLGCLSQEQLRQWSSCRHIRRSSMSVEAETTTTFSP
CCR7-V317I fused to YFP2 (P32248, form named): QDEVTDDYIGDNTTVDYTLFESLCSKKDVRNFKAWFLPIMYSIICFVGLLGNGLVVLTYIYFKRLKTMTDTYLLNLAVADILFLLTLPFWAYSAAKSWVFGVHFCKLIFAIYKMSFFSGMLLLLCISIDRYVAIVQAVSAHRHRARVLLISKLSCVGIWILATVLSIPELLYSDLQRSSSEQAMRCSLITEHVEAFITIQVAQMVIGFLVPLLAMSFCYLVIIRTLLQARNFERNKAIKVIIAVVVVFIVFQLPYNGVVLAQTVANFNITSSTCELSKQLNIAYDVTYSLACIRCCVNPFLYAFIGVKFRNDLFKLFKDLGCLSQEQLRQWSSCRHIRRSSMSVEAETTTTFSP
UniProt P43403: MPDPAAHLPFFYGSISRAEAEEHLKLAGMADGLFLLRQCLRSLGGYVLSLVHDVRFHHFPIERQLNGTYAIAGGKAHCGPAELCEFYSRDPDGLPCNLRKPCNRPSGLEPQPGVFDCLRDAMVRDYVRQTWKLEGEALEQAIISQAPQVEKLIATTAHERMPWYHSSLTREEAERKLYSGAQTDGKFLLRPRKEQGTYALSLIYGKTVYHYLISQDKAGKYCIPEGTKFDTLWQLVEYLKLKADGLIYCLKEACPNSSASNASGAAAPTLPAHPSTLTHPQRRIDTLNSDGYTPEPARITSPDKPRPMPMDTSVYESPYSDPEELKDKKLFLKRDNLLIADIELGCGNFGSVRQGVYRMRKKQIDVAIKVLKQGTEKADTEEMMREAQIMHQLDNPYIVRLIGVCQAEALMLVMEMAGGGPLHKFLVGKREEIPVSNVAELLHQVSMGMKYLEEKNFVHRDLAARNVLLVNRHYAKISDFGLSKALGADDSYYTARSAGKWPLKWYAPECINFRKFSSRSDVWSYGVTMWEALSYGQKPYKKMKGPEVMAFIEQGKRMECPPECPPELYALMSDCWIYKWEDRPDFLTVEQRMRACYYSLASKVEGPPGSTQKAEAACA

In assay [1] the target is CD3ζ (endogenous, human PBLs) (human (endogenous in primary PBLs)) (UniProt P20963). In words: proximity ligation; endogenous proteins in primary human PBLs on poly-L-lysine coated coverslips, unstimulated or stimulated with 0.5 μg/ml CCL19 or CCL21, fixed in 4% formaldehyde, permeabilized, Duolink PLA, signals counted in ImageJ.
Assay [2] deals with CCR7 (endogenous, human PBLs) (human (endogenous in primary PBLs)) (UniProt P32248). Described as above.
The target in assay [3] is CCR7-A315G fused to YFP2 (UniProt P32248). In words: split reporter; YFP BiFC in HEK293 cells transiently transfected 1:1 with splitYFP1 and splitYFP2 constructs, stimulated or not with 0.5 μg/ml CCL19 or CCL21 (30 min or 1 h), some cells pre-treated with PTx (100 ng/ml); fixed; flow cytometry and confocal microscopy. A general note: Flow cytometry measures light scatter and fluorescence of single cells or particles in a stream.

Assay [4] addresses CCR7-YFP2 (UniProt P32248). Described as above.
For assay [5], the target named is CCR7-Y155F-YFP2 (UniProt P32248). The assay is described as above.
For assay [6], the target named is CCR7-V317I fused to YFP2 (UniProt P32248). The description is as above.
The target of assay [7] is CCR7-YFP2 (UniProt P32248). Briefly: split reporter; YFP BiFC in mouse embryonic fibroblasts from wild-type or β-arrestin 1 and 2 double deficient mice, transiently transfected, chemokine stimulated.
Assay [8] deals with ZAP70 (endogenous, human PBLs) (human (endogenous in primary PBLs)) (UniProt P43403). In words: proximity ligation; endogenous proteins in primary human PBLs on poly-L-lysine coated coverslips, unstimulated or stimulated with 0.5 μg/ml CCL19 or CCL21, fixed in 4% formaldehyde, permeabilized, Duolink PLA, signals counted in ImageJ.
Assay [9] addresses ZAP70-YFP1 (human) (UniProt P43403). Briefly: split reporter; YFP BiFC in HEK293 cells stably expressing CCR7-HA, transiently transfected with YFP1 and YFP2 constructs, stimulated or not with 0.5 μg/ml CCL19 or CCL21 for 1 h; flow cytometry and confocal microscopy.

Regarding “CCR7 (endogenous, human PBLs) (from UniProt P32248 25-378) (receptor)”, the binding entry in assay [1] is listed as “binds”.

As to “ZAP70 (endogenous, human PBLs) (from UniProt P43403 1-619) (enzyme)”, the binding entry in assay [2] is reported as “binds”.

On to “ZAP70-YFP1 (from UniProt P43403 1-619) (enzyme)”, for which the binding result in assay [3], in assay [4], in assay [5], in assay [6] and in [7] was “binds” each time.

B1: Vav1 (endogenous, human PBLs) (protein, UniProt P15498 1-845)
chain: MELWRQCTHWLIQCRVLPPSHRVTWDGAQVCELAQALRDGVLLCQLLNNLLPHAINLREVNLRPQMSQFLCLKNIRTFLSTCCEKFGLKRSELFEAFDLFDVQDFGKVIYTLSALSWTPIAQNRGIMPFPTEEESVGDEDIYSGLSDQIDDTVEEDEDLYDCVENEEAEGDEIYEDLMRSEPVSMPPKMTEYDKRCCCLREIQQTEEKYTDTLGSIQQHFLKPLQRFLKPQDIEIIFINIEDLLRVHTHFLKEMKEALGTPGAANLYQVFIKYKERFLVYGRYCSQVESASKHLDRVAAAREDVQMKLEECSQRANNGRFTLRDLLMVPMQRVLKYHLLLQELVKHTQEAMEKENLRLALDAMRDLAQCVNEVKRDNETLRQITNFQLSIENLDQSLAHYGRPKIDGELKITSVERRSKMDRYAFLLDKALLICKRRGDSYDLKDFVNLHSFQVRDDSSGDRDNKKWSHMFLLIEDQGAQGYELFFKTRELKKKWMEQFEMAISNIYPENATANGHDFQMFSFEETTSCKACQMLLRGTFYQGYRCHRCRASAHKECLGRVPPCGRHGQDFPGTMKKDKLHRRAQDKKRNELGLPKMEVFQEYYGLPPPPGAIGPFLRLNPGDIVELTKAEAEQNWWEGRNTSTNEIGWFPCNRVKPYVHGPPQDLSVHLWYAGPMERAGAESILANRSDGTFLVRQRVKDAAEFAISIKYNVEVKHIKIMTAEGLYRITEKKAFRGLTELVEFYQQNSLKDCFKSLDTTLQFPFKEPEKRTISRPAVGSTKYFGTAKARYDFCARDRSELSLKEGDIIKILNKKGQQGWWRGEIYGRVGWFPANYVEEDYSEYC
For B1, the binding entry in assay [8] is reported as “binds”.

B2: Vav1-YFP2 (protein, UniProt P15498 1-845)
chain: MELWRQCTHWLIQCRVLPPSHRVTWDGAQVCELAQALRDGVLLCQLLNNLLPHAINLREVNLRPQMSQFLCLKNIRTFLSTCCEKFGLKRSELFEAFDLFDVQDFGKVIYTLSALSWTPIAQNRGIMPFPTEEESVGDEDIYSGLSDQIDDTVEEDEDLYDCVENEEAEGDEIYEDLMRSEPVSMPPKMTEYDKRCCCLREIQQTEEKYTDTLGSIQQHFLKPLQRFLKPQDIEIIFINIEDLLRVHTHFLKEMKEALGTPGAANLYQVFIKYKERFLVYGRYCSQVESASKHLDRVAAAREDVQMKLEECSQRANNGRFTLRDLLMVPMQRVLKYHLLLQELVKHTQEAMEKENLRLALDAMRDLAQCVNEVKRDNETLRQITNFQLSIENLDQSLAHYGRPKIDGELKITSVERRSKMDRYAFLLDKALLICKRRGDSYDLKDFVNLHSFQVRDDSSGDRDNKKWSHMFLLIEDQGAQGYELFFKTRELKKKWMEQFEMAISNIYPENATANGHDFQMFSFEETTSCKACQMLLRGTFYQGYRCHRCRASAHKECLGRVPPCGRHGQDFPGTMKKDKLHRRAQDKKRNELGLPKMEVFQEYYGLPPPPGAIGPFLRLNPGDIVELTKAEAEQNWWEGRNTSTNEIGWFPCNRVKPYVHGPPQDLSVHLWYAGPMERAGAESILANRSDGTFLVRQRVKDAAEFAISIKYNVEVKHIKIMTAEGLYRITEKKAFRGLTELVEFYQQNSLKDCFKSLDTTLQFPFKEPEKRTISRPAVGSTKYFGTAKARYDFCARDRSELSLKEGDIIKILNKKGQQGWWRGEIYGRVGWFPANYVEEDYSEYC
As for B2, the binding result in [9] is on record as “binds”.
